Laboratory results reported in patent US20080221097A1, “Imidazopyridine Derivatives as Cannabinoid Receptor Ligands” (priority 2005, published 2008).
Counter-ions that a name gives are not always drawn. Some entries share one result that the patent states for a list of compounds.

Chains of the proteins cited; added tags and fusions are not shown.
UniProt P34972, whole entry: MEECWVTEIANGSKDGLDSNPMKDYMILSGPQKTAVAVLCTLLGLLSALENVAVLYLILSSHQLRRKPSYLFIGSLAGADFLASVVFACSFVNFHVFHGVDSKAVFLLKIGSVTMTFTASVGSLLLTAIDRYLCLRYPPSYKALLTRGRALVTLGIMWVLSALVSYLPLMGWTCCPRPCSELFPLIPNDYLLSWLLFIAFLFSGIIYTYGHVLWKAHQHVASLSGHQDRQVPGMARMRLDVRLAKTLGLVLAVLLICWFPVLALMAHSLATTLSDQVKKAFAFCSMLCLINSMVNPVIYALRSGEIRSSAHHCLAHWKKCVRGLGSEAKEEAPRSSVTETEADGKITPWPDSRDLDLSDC
UniProt P21554, whole entry: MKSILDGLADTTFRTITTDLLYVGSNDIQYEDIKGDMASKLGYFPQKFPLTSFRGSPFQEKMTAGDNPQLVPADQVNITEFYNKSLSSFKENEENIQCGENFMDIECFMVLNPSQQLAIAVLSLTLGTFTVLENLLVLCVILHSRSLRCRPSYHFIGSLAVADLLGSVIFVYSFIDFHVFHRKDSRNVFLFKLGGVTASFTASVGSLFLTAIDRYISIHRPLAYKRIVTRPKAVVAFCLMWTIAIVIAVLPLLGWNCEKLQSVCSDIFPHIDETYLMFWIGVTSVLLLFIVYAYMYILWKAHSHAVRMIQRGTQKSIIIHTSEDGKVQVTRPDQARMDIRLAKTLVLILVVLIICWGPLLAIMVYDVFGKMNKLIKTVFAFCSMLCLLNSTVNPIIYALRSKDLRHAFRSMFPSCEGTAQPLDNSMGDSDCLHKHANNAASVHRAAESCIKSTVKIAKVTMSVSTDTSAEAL

Tests used:
[1] = molecular target: T1, human cannabinoid CB2 receptor (Homo sapiens, UniProt P34972); assay: Cannabinoid CB2 receptor agonist activity, yeast assay; type: cell-based; settings: for EMR (equieffective molar ratio) in the CB2 yeast receptor assay: EC50[compound]/EC50[HU210]; for lower EMR for CB2 over CB1 (selectivity): yeast assays, EMR CB1 versus EMR CB2; for EC50: yeast cells expressing human CB2, read-out: EC50 at the cloned human cannabinoid CB2 receptor; for EC50 / efficacy (Emax) at the cloned human cannabinoid CB2 receptor: averages of a number of experiments; for efficacy (Emax) at the cloned human cannabinoid CB2 receptor: relative to HU210
T1 construct: expressed in transfected cells; host or cells: Saccharomyces cerevisiae strain MMY23 (cassette integrated at the ura3 locus, GPD promoter)
Experimental: The cannabinoid CB2 receptor agonist activity of compounds of formula (I) was determined in accordance with the following experimental method.
Yeast (Saccharomyces cerevisiae) cells expressing the human cannabinoid CB2 receptor were generated by integration of an expression cassette into the ura3 chromosomal locus of yeast strain MMY23. This cassette consisted of DNA sequence encoding the human CB2 receptor flanked by the yeast GPD promoter to the 5′ end of CB2 and a yeast transcriptional terminator sequence to the 3′ end of CB2. MMY23 expresses a yeast/mammalian chimeric G-protein alpha subunit in which the C-terminal 5 amino acids of Gpa1 are replaced with the C-terminal 5 amino acids of human Gαi½ (as described in Brown et al. (2000), Yeast 16:11-22). Cells were grown at 30° C. in liquid Synthetic Complete (SC) yeast media (Guthrie and Fink (1991), Methods in Enzymology, Vol. 194) lacking uracil, tryptophan, adenine and leucine to late logarithmic phase (approximately 6 OD600/ml).
Agonists were prepared as […] solutions in DMSO. EC50 values (the concentration required to produce 50% maximal response) were estimated using 4 fold dilutions (BiomekFX, Beckman) into DMSO. Agonist solutions in DMSO (1% final assay volume) were transferred into black microtitre plates from Greiner (384-well). Cells were suspended at a density of 0.2 OD600/ml in SC media lacking histidine, uracil, tryptophan, adenine and leucine and supplemented with 10 mM 3-aminotriazole, 0.1M sodium phosphate pH 7.0, and 10 μM fluorescein di-β-D-glucopyranoside (FDGlu). This mixture (50 μl per well) was added to agonist in the assay plates (Multidrop 384, Labsystems). After incubation at 30° C. for 24 hours, fluorescence resulting from degradation of FDGlu to fluorescein due to exoglucanase, an endogenous yeast enzyme produced during agonist-stimulated cell growth, was determined using a fluorescence microtitre plate reader (Tecan Spectrofluor or LJL Analyst excitation wavelength: 485 nm; emission wavelength: 535 nm). Fluorescence was plotted against compound concentration and iteratively curve fitted using a four parameter fit to generate a concentration effect value. Efficacy (Emax) was calculated from the equation
Emax=Max[compound X]−Min[compound X]/Max[HU210]−Min[HU210]×100%
where Max[compound X] and Min[compound X] are the fitted maximum and minimum respectively from the concentration effect curve for compound X, and Max[HU210] and Min[HU210] are the fitted maximum and minimum respectively from the concentration effect curve for (6aR,10aR)-3-(1,1′-Dimethylheptyl)-6a,7,10,10a-tetrahydro-1-hydroxy-6,6-dimethyl-6H-dibenzo [b,d]pyran-9-methanol (HU210; available from Tocris). Equieffective molar ratio (EMR) values were calculated from the equation
Where EC50[compound X] is the EC50 of compound X and EC50[HU210] is the EC50of HU210.

[2] = molecular target: T2, human cannabinoid CB1 receptor (Homo sapiens, UniProt P21554); assay: Cannabinoid CB1 receptor agonist activity, yeast assay; type: cell-based; settings: EC50[compound]/EC50[HU210]
T2 construct: expressed in transfected cells; host or cells: Saccharomyces cerevisiae strain MMY23 (cassette integrated at the ura3 locus, GPD promoter)

SMILES: Cl.Cn1cnc2c(Nc3cccc(Br)c3)ncc(C(=O)N3CCCCC3)c21 [Example 1, N-(3-Bromophenyl)-1-methyl-7-(1-piperidinylcarbonyl)-1H-imidazo[4,5-c]pyridin-4-amine hydrochloride salt]
- EMR (equieffective molar ratio) in the CB2 yeast receptor assay [1]: less than 100
- lower EMR for CB2 over CB1 (selectivity) [1]: tenfold
- EC50 [1]: < 0.3 µM
- EMR (equieffective molar ratio) in the CB1 yeast receptor assay [2]: greater than 100

SMILES: Cl.Cn1cnc2c(Nc3cccc(Br)c3)ncc(C(=O)N3CCOCC3)c21 [Example 2, N-(3-Bromophenyl)-1-methyl-7-(4-morpholinylcarbonyl)-1H-imidazo[4,5-c]pyridin-4-amine hydrochloride salt]
- efficacy (Emax) at the cloned human cannabinoid CB2 receptor [1]: > 50%

SMILES: Cl.Cn1cnc2c(Nc3cccc(Br)c3)ncc(C(=O)N3CCCC3)c21 [Example 3, N-(3-Bromophenyl)-1-methyl-7-(1-pyrrolidinylcarbonyl)-1H-imidazo[4,5-c]pyridin-4-amine hydrochloride salt]
- EMR (equieffective molar ratio) in the CB2 yeast receptor assay [1]: less than 100
- lower EMR for CB2 over CB1 (selectivity) [1]: tenfold
- EC50 [1]: < 0.3 µM
- EMR (equieffective molar ratio) in the CB1 yeast receptor assay [2]: greater than 100

SMILES: CC(C)CNC(=O)c1cnc(Nc2cccc(Br)c2)c2ncn(C)c12.Cl [Example 4, 4-[(3-Bromophenyl)amino]-1-methyl-N-(2-methylpropyl)-1H-imidazo[4,5-c]pyridine-7-carboxamide hydrochloride salt]
- EMR (equieffective molar ratio) in the CB2 yeast receptor assay [1]: less than 100
- lower EMR for CB2 over CB1 (selectivity) [1]: tenfold
- EC50 [1]: < 0.3 µM
- EMR (equieffective molar ratio) in the CB1 yeast receptor assay [2]: greater than 100

SMILES: Cl.Cn1cnc2c(Nc3ccc(Cl)cc3Cl)ncc(C(=O)N3CCOCC3)c21 [Example 5, N-(2,4-Dichlorophenyl)-1-methyl-7-(4-morpholinylcarbonyl)-1H-imidazo[4,5-c]pyridin-4-amine hydrochloride salt]
- EMR (equieffective molar ratio) in the CB2 yeast receptor assay [1]: less than 100
- lower EMR for CB2 over CB1 (selectivity) [1]: tenfold
- EC50 [1]: < 0.3 µM
- EMR (equieffective molar ratio) in the CB1 yeast receptor assay [2]: greater than 100

SMILES: Cl.Cn1cnc2c(Nc3ccc(Cl)cc3Cl)ncc(C(=O)N3CCCCC3)c21 [Example 6, N-(2,4-Dichlorophenyl)-1-methyl-7-(1-piperidinylcarbonyl)-1H-imidazo[4,5-c]pyridin-4-amine hydrochloride salt]
- efficacy (Emax) at the cloned human cannabinoid CB2 receptor [1]: > 50%
- EC50 [1]: < 0.3 µM

SMILES: Cl.Cn1cnc2c(Nc3ccc(Cl)cc3Cl)ncc(C(=O)N3CCCC3)c21 [Example 7, N-(2,4-Dichlorophenyl)-1-methyl-7-(1-pyrrolidinylcarbonyl)-1H-imidazo[4,5-c]pyridin-4-amine hydrochloride salt]
- EMR (equieffective molar ratio) in the CB2 yeast receptor assay [1]: less than 100
- lower EMR for CB2 over CB1 (selectivity) [1]: tenfold
- EC50 [1]: < 0.3 µM
- EMR (equieffective molar ratio) in the CB1 yeast receptor assay [2]: greater than 100

SMILES: CC(C)CNC(=O)c1cnc(Nc2ccc(Cl)cc2Cl)c2ncn(C)c12.Cl [Example 8]
- efficacy (Emax) at the cloned human cannabinoid CB2 receptor [1]: > 50%

SMILES: Cl.Cn1cnc2c(Nc3cccc(Cl)c3)ncc(C(=O)N3CCCCC3)c21 [Example 10, N-(3-Chlorophenyl)-1-methyl-7-(1-piperidinylcarbonyl)-1H-imidazo[4,5-c]pyridin-4-amine hydrochloride salt]
- EMR (equieffective molar ratio) in the CB2 yeast receptor assay [1]: less than 100
- lower EMR for CB2 over CB1 (selectivity) [1]: tenfold
- EC50 [1]: < 0.3 µM
- EMR (equieffective molar ratio) in the CB1 yeast receptor assay [2]: greater than 100

SMILES: Cl.Cn1cnc2c(Nc3cccc(Cl)c3)ncc(C(=O)N3CCCC3)c21 [Example 11, N-(3-Chlorophenyl)-1-methyl-7-(1-pyrrolidinylcarbonyl)-1H-imidazo[4,5-c]pyridin-4-amine hydrochloride salt]
- efficacy (Emax) at the cloned human cannabinoid CB2 receptor [1]: > 50%

SMILES: CC(C)CNC(=O)c1cnc(Nc2cccc(Cl)c2)c2ncn(C)c12.Cl [Example 12, 4-[(3-Chlorophenyl)amino]-1-methyl-N-(2-methylpropyl)-1H-imidazo[4,5-c]pyridine-7-carboxamide hydrochloride salt]
- EMR (equieffective molar ratio) in the CB2 yeast receptor assay [1]: less than 100
- lower EMR for CB2 over CB1 (selectivity) [1]: tenfold
- EC50 [1]: < 0.3 µM
- EMR (equieffective molar ratio) in the CB1 yeast receptor assay [2]: greater than 100

SMILES: Cl.Cn1cnc2c(Oc3cccc(Cl)c3)ncc(C(=O)N3CCCCC3)c21 [Example 13, 4-[(3-Chlorophenyl)oxy]-1-methyl-7-(1-piperidinylcarbonyl)-1H-imidazo[4,5-c]pyridine hydrochloride salt]
- EMR (equieffective molar ratio) in the CB2 yeast receptor assay [1]: less than 100
- lower EMR for CB2 over CB1 (selectivity) [1]: tenfold
- EC50 [1]: < 0.3 µM
- EMR (equieffective molar ratio) in the CB1 yeast receptor assay [2]: greater than 100

SMILES: Cl.Cn1cnc2c(Oc3cccc(Cl)c3)ncc(C(=O)N3CCOCC3)c21 [Example 14, 4-1(3-Chlorophenyl)oxy]-1-methyl-7-(4-morpholinylcarbonyl)-1H-imidazo[4,5-c]pyridine hydrochloride salt]
- EC50 [1]: < 0.3 µM

SMILES: Cl.Cn1cnc2c(Oc3cccc(Cl)c3)ncc(C(=O)N3CCOCC3)c21 [Example 14]
- EMR (equieffective molar ratio) in the CB2 yeast receptor assay [1]: less than 100
- lower EMR for CB2 over CB1 (selectivity) [1]: tenfold
- EMR (equieffective molar ratio) in the CB1 yeast receptor assay [2]: greater than 100

SMILES: Cn1cnc2c(Oc3cccc(Cl)c3)ncc(C(=O)N3CCCC3)c21 [Example 15, 4-1(3-Chlorophenyl)oxy]-1-methyl-7-(1-pyrrolidinylcarbonyl)-1H-imidazo[4,5-c]pyridine hydrochloride salt]
- efficacy (Emax) at the cloned human cannabinoid CB2 receptor [1]: > 50%

SMILES: CC(C)CNC(=O)c1cnc(Oc2cccc(Cl)c2)c2ncn(C)c12.Cl [Example 16, 4-1(3-Chlorophenyl)oxy]-1-methyl-N-(2-methylpropyl)-1H-imidazo[4,5-c]pyridine-7-carboxamide hydrochloride salt]
- EC50 [1]: < 0.3 µM

SMILES: CC(C)CNC(=O)c1cnc(Oc2cccc(Cl)c2)c2ncn(C)c12.Cl [Example 16]
- efficacy (Emax) at the cloned human cannabinoid CB2 receptor [1]: > 50%

SMILES: Cl.Cn1cnc2c(Nc3cccc(F)c3)ncc(C(=O)N3CCOCC3)c21 [Example 18, N-(3-Fluorophenyl)-1-methyl-7-(4-morpholinylcarbonyl)-1H-imidazo[4,5-c]pyridin-4-amine hydrochloride salt]
- EMR (equieffective molar ratio) in the CB2 yeast receptor assay [1]: less than 100
- lower EMR for CB2 over CB1 (selectivity) [1]: tenfold
- EC50 [1]: < 0.3 µM
- EMR (equieffective molar ratio) in the CB1 yeast receptor assay [2]: greater than 100

SMILES: Cl.Cn1cnc2c(Nc3ccc(F)c(F)c3)ncc(C(=O)N3CCOCC3)c21 [Example 19, N-(3,4-Difluorophenyl)-1-methyl-7-(4-morpholinylcarbonyl)-1H-imidazo[4,5-c]pyridin-4-amine hydrochloride salt]
- efficacy (Emax) at the cloned human cannabinoid CB2 receptor [1]: > 50%
- EC50 [1]: < 0.3 µM

SMILES: Cl.Cn1cnc2c(Nc3cccc(C(F)(F)F)c3F)ncc(C(=O)N3CCOCC3)c21 [Example 21, N-[2-Fluoro-3-(trifluoromethyl)phenyl]-1-methyl-7-(4-morpholinylcarbonyl)-1H-imidazo[4,5-c]pyridin-4-amine hydrochloride salt]
- EMR (equieffective molar ratio) in the CB2 yeast receptor assay [1]: less than 100
- lower EMR for CB2 over CB1 (selectivity) [1]: tenfold
- EC50 [1]: < 0.3 µM
- EMR (equieffective molar ratio) in the CB1 yeast receptor assay [2]: greater than 100

SMILES: Cl.Cn1cnc2c(Nc3ccc(F)c(Cl)c3)ncc(C(=O)N3CCOCC3)c21 [Example 22, N-(3-Chloro-4-fluorophenyl)-1-methyl-7-(4-morpholinylcarbonyl)-1H-imidazo[4,5-c]pyridin-4-amine hydrochloride salt]
- EMR (equieffective molar ratio) in the CB2 yeast receptor assay [1]: less than 100
- lower EMR for CB2 over CB1 (selectivity) [1]: tenfold
- EC50 [1]: < 0.3 µM
- EMR (equieffective molar ratio) in the CB1 yeast receptor assay [2]: greater than 100
